Source: PubChem BioAssay AID1671190 (National Center for Advancing Translational Sciences (NCATS), 2021)
In all, about 580,000 compounds went through this assay and about 6,100 (1.1%) were called active. Inconclusive results, whose numbers are uncertain, are shown with a selection of clear calls. Calls come from the whole dose curve; as a rule, active = well fitted inhibition curve with a large enough effect; inconclusive = small, poorly fitted or top-dose-only effect, or another doubt; inactive = no such curve, though single readings can be large or run the other way. Where the call is inconclusive, the potency comes from a doubtful curve fit.

Sequences of proteins named here, by UniProt entry; tags and fusion partners are left off. A change or cut given only in a name is not applied to a line headed by its entry.
UniProt P18054: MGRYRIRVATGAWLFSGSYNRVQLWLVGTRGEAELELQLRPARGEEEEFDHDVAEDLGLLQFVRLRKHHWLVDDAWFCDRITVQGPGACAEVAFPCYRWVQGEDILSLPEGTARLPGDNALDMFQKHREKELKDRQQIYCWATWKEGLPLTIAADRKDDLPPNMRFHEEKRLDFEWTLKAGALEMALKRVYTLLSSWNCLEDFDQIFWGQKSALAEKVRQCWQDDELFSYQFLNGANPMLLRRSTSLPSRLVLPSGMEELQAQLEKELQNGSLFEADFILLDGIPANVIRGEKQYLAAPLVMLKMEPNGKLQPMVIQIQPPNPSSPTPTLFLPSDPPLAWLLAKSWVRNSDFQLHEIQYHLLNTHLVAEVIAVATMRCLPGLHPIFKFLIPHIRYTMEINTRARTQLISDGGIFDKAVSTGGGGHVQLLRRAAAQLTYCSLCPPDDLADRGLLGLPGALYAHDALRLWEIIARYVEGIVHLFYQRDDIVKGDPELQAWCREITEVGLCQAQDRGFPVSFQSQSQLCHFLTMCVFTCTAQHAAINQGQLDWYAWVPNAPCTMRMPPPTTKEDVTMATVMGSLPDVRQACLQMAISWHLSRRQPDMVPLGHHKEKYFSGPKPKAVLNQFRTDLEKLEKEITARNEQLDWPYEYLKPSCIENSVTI

Molecular target: Polyunsaturated fatty acid lipoxygenase ALOX12 (Homo sapiens) (UniProt P18054)
Assay: Primary qHTS assay for inhibitors of human arachidonate 12S-lipoxygenase (ALOX12): Round 2
Conditions: purified 12hLO, xylenol orange hydroperoxide absorbance; activity change, negative = inhibition: at 108 µM (top of the series) unless noted
Procedure, shortened: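 Purified human 12hLO at 150 nM in 25 mM Hepes, 0.01% Triton X-100, pH 7.0, preincubated 15 min at room temperature with compound. Reaction started with 40 uM arachidonic acid, 30 min at room temperature. Hydroperoxide measured by Fe-xylenol orange, 573/405 nm absorbance ratio.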
% is set by controls: 0 for no effect and ±100 for the full control effect; potency is the fitted concentration of half-maximal effect.

SMILES | Potency | activity change, negative = inhibition
CCc1ccccc1NC(=O)N[C@@H](C)C(=O)O | inactive | 
COc1cc(C(C)=O)ccc1OS(=O)(=O)c1ccc2c(c1)CCCC2 | inactive | 
COC(=O)CN(C(=S)Nc1ccc(Cl)cc1)C1CC(=O)N(c2ccc(OC)cc2)C1=O (configuration not stated) | inconclusive: 44.7 µM [inhibitor, partial curve, poor fit] | 
COc1c(/C=C2\SC(=Nc3ccccc3Cl)NC2=O)cccc1[N+](=O)[O-] | inconclusive: 0.178 µM [inhibitor, full curve, poor fit] | 
CCN(c1ccccc1)S(=O)(=O)c1ccc(OC)c(NC(=O)c2nn(C)c(=O)c3ccccc23)c1 | inconclusive: 35.5 µM [inhibitor, partial curve, poor fit] | 
Cc1nn2cc(-c3cccc(Cl)c3)cnc2c1Br | inactive | 
O=C(NNS(=O)(=O)Cc1ccccc1)c1ccc([N+](=O)[O-])cc1 | inconclusive: 5.62 µM [inhibitor, partial curve, poor fit] | 
CCOC(=O)CSc1nc2c(c(=O)[nH]c(=O)n2C)n1CC | inconclusive: 15.8 µM [inhibitor, full curve] | 
Cc1c(-c2ccccc2)c(-c2ccc(OCCN(C)C)cc2)n2ccccc12 | inconclusive: 50.1 µM [inhibitor, partial curve, poor fit] | 
C[C@@H]1CN([C@H](C)CO)C(=O)c2cc(NC(=O)Nc3ccc(C(F)(F)F)cc3)ccc2O[C@H]1CN(C)Cc1ccc(Cl)c(Cl)c1 | inconclusive: 70.8 µM [inhibitor, partial curve, poor fit] | 
C=CCNC(=O)C1COC2(CCCCC2)N1C(=O)c1cccc(F)c1 (configuration not stated) | inactive | 
CN(C)C(CNC(=O)CCc1ncc(-c2c(F)cccc2F)o1)c1ccco1 (configuration not stated) | inactive | 
Cc1cc(C(=O)N2CCC(NC(=O)C3CCCCC3)CC2)c2ccccc2n1 |  | inconclusive: -30.9% [inhibitor]
COC(=O)C1C=CC(OC2OC(COC(C)=O)C(OC(C)=O)C(OC(C)=O)C2OC(C)=O)n2c(=O)n(-c3ccccc3)c(=O)n21 (configuration not stated) | inconclusive: 31.6 µM [inhibitor, partial curve] | 
O=c1c(-c2cc(F)cc(F)c2)nc2cnc(N3CCOCC3)nc2n1C1CC1 | inconclusive: 31.6 µM [inhibitor, single point] | 
O=C(CCN1c2ccccc2Sc2ccccc21)N1CCCC(c2nc(C3CCOCC3)no2)C1 (configuration not stated) | inconclusive: 28.2 µM [inhibitor, full curve] | 
CC(=O)c1cccc(OCC(O)CNCCOc2ccc(C)cc2)c1 (configuration not stated) | inconclusive: 1.12 µM [inhibitor, full curve, poor fit] | 
CC(C)CCC(=O)Nc1cccc(S(=O)(=O)NC(C)(C)C)c1 | inconclusive: 28.2 µM [inhibitor, single point] | 
CC(=O)c1ccc(Cc2cnc(N)s2)cc1 | inactive | 
CCN1CCN(C(=O)C2CCN(Cc3nc(-c4cccc(Cl)c4)oc3C)CC2)CC1 | inconclusive: 6.31 µM [inhibitor, partial curve, poor fit] | 
Cc1cccc2cc(C(c3nnnn3Cc3ccccc3)N3CCCc4ccccc43)c(=O)[nH]c12 (configuration not stated) | inconclusive: 70.8 µM [inhibitor, partial curve, poor fit] | 

In the list so far, these contain a nitro group on carbon:
SMILES | Potency | activity change, negative = inhibition
COc1c(/C=C2\SC(=Nc3ccccc3Cl)NC2=O)cccc1[N+](=O)[O-] | inconclusive: 0.178 µM [inhibitor, full curve, poor fit] | 
O=C(NNS(=O)(=O)Cc1ccccc1)c1ccc([N+](=O)[O-])cc1 | inconclusive: 5.62 µM [inhibitor, partial curve, poor fit] | 

Remaining list, next part.

SMILES | Potency | activity change, negative = inhibition
COc1cc2c(cc1OC)C(C)N(CCN1C(=O)c3ccccc3C1=O)CC2 (configuration not stated) | inactive | 
COc1ccccc1OCCn1cc(C=O)c2ccccc21 | inconclusive: 6.31 µM [inhibitor, full curve] | 
CC(C)Cc1ccc(C(C)NC(=O)c2ccc(CN3CCCC3)cc2)cc1 (configuration not stated) | inconclusive: 56.2 µM [inhibitor, partial curve, poor fit] | 
COc1ccccc1C(C)NC(=O)CCC(=O)N1CCN(S(=O)(=O)c2ccc(Cl)cc2)CC1 (configuration not stated) | inactive | 
CC(=O)c1ccc(OCc2ccc(F)cc2)cc1 | inactive | 
OCCN1CCN(CC(O)COCC2COc3ccccc3O2)CC1 (configuration not stated) | inactive | 
Cc1cc2cc(NS(=O)(=O)c3cc(F)ccc3F)ccc2[nH]1 | inconclusive: 56.2 µM [inhibitor, partial curve, poor fit] | 
O=C(O)Cc1sc(Nc2ccccc2Cl)nc1-c1ccccc1 | inconclusive: 8.91 µM [inhibitor, full curve, poor fit] | 
O=C(c1cc2c(s1)CCC2)N1C(=O)c2ccccc2S1(=O)=O | inconclusive: 4.47 µM [inhibitor, full curve, poor fit] | 
O=C(c1ccccc1)C(c1ccccc1)c1ccccc1 | inactive | 
O=S(=O)(NCc1ccccc1Cn1cccn1)c1ccccc1C(F)(F)F | inactive | 
COc1ccc(N/N=C(/C#N)S(=O)(=O)C(C)(C)C)cc1 | inconclusive: 39.8 µM [inhibitor, partial curve, poor fit] | 
COc1cc(C2c3c(oc4ccccc4c3=O)C(=O)N2c2nncs2)cc(OC)c1OC (configuration not stated) | inactive | 
O=C(NCc1ccc(S(=O)(=O)Nc2ccccc2Cl)s1)c1ccccc1 | inactive | 
Nc1ccccc1C(=O)C[C@H](N)C(=O)O | inconclusive: 2.51 µM [inhibitor, partial curve, poor fit] | 
CC1CC(C)CN(CC(=O)Nc2ccc(S(N)(=O)=O)cc2)C1 (configuration not stated) | inconclusive: 3.16 µM [inhibitor, full curve, poor fit] | 
COc1ccc(NC(=O)C(C)n2nc(-c3ccc(C)cc3)c3c(c2=O)CCCC3)cc1 (configuration not stated) | inconclusive: 31.6 µM [inhibitor, partial curve, poor fit] | 
Cc1nc2nc(SCc3ccc(F)cc3Cl)nn2c(C)c1Cc1ccccc1 | inactive | 
CC1(c2noc(-c3ccccc3)n2)CCN(C(=O)CCC(=O)N2CC(=O)Nc3ccccc32)CC1 | inconclusive: 44.7 µM [inhibitor, partial curve, poor fit] | 
N#Cc1cccc(C(=O)N2CCCC(c3nccn3Cc3ccccc3)C2)c1 (configuration not stated) | inconclusive: 100 µM [inhibitor, partial curve, poor fit] | 
COc1ccc(CNC(=S)Nc2cccc(C)c2)cc1 | inconclusive: 35.5 µM [inhibitor, partial curve, poor fit] | 
